Experimental findings from article PMC10873425 are described below.

Protein sequences, listed by entry. Tags and fused reporters are not part of them. Lines headed by an entry give the natural chain unless they say otherwise; changes in a name come on top.
UniProt Q5U4H9: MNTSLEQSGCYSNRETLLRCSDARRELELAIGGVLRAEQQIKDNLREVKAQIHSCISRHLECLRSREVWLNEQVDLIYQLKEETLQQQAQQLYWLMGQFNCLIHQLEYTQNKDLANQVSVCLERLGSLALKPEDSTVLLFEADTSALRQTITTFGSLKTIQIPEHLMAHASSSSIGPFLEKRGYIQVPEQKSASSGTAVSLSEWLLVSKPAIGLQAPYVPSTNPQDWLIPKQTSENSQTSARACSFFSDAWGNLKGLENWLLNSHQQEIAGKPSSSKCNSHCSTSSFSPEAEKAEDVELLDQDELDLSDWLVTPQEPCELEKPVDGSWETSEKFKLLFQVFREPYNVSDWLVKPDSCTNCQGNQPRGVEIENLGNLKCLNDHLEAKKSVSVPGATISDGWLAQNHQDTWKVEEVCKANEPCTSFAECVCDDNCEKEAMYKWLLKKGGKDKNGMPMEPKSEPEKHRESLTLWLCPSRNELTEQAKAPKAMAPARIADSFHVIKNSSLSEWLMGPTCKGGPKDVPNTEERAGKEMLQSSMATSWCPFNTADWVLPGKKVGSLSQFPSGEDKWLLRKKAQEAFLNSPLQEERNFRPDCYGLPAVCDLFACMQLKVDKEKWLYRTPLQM
UniProt P37238: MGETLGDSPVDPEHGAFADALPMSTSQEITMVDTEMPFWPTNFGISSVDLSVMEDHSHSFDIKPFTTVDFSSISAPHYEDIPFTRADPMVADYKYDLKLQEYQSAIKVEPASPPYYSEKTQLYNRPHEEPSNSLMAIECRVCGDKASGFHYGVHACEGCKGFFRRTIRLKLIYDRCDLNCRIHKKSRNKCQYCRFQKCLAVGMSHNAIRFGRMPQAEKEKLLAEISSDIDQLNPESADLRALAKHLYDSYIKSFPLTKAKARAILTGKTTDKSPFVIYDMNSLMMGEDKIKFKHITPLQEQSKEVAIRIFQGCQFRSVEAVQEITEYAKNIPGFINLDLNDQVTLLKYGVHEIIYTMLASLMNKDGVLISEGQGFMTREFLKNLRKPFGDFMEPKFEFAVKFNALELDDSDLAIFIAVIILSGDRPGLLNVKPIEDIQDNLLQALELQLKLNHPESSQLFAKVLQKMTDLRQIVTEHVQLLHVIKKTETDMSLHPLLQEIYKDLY

Results are given in words; binding and its absence hold for the method and conditions named. In cells and extracts the contact can be indirect. Binding calls can cover weak binding; strength is not graded here.

This assay concerns the target HA-tagged ∆NCOA4^LxxAA (NCOA4 with mutant LxxLL motif) (mouse) (UniProt Q5U4H9). In words: co-IP; Flag-PPARγ and HA-NCOA4 (wild type or ∆NCOA4^LxxAA) expressed in cultured VSMCs (MOVAS); NP-40 lysate, anti-HA-tag or anti-Flag-tag, protein A/G PLUS-Agarose, 4 °C overnight, immunoblotting; with or without rosiglitazone (10 μM).

Regarding “Flag-PPARγ (peroxisome proliferator-activated receptor-γ) (from UniProt P37238 1-505)”, the binding entry is “binds”.
